Test [1] has as its target T1, PPARα-HA (Peroxisome Proliferator Activated Receptor alpha, HA-tagged) (UniProt P23204).
T1 sequence: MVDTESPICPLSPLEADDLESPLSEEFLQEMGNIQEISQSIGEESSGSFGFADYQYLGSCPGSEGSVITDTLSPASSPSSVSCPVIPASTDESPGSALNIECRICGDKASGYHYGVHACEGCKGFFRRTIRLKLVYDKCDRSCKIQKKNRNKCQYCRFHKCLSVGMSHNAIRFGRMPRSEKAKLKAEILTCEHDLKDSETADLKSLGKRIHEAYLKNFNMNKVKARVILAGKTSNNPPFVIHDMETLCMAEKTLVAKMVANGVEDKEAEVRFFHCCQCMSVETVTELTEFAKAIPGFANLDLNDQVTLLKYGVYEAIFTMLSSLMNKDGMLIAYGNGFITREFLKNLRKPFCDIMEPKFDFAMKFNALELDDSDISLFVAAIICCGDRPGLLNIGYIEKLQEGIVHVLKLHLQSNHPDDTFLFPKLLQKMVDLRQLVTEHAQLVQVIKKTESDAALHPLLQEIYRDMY
The experiment in a line: proximity ligation; Duolink in situ on fixed, permeabilised HEK293T cells transfected with PPARα-HA with or without Vps15-Flag; primary antibodies to Hdac3 and to the HA tag.

By UniProt entry, the sequences of proteins in these tests, tags left out.
UniProt O15379: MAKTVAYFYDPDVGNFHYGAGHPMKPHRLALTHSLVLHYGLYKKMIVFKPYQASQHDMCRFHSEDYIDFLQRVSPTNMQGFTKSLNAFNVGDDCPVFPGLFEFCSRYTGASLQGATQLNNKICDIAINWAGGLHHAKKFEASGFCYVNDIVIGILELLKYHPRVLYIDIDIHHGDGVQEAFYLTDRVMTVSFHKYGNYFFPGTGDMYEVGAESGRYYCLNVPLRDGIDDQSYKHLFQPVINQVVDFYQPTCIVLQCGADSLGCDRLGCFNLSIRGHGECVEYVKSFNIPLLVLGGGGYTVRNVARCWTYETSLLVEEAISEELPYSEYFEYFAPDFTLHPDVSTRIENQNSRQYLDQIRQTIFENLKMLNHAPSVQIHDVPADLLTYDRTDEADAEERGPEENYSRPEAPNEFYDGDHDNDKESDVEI
UniProt O75376: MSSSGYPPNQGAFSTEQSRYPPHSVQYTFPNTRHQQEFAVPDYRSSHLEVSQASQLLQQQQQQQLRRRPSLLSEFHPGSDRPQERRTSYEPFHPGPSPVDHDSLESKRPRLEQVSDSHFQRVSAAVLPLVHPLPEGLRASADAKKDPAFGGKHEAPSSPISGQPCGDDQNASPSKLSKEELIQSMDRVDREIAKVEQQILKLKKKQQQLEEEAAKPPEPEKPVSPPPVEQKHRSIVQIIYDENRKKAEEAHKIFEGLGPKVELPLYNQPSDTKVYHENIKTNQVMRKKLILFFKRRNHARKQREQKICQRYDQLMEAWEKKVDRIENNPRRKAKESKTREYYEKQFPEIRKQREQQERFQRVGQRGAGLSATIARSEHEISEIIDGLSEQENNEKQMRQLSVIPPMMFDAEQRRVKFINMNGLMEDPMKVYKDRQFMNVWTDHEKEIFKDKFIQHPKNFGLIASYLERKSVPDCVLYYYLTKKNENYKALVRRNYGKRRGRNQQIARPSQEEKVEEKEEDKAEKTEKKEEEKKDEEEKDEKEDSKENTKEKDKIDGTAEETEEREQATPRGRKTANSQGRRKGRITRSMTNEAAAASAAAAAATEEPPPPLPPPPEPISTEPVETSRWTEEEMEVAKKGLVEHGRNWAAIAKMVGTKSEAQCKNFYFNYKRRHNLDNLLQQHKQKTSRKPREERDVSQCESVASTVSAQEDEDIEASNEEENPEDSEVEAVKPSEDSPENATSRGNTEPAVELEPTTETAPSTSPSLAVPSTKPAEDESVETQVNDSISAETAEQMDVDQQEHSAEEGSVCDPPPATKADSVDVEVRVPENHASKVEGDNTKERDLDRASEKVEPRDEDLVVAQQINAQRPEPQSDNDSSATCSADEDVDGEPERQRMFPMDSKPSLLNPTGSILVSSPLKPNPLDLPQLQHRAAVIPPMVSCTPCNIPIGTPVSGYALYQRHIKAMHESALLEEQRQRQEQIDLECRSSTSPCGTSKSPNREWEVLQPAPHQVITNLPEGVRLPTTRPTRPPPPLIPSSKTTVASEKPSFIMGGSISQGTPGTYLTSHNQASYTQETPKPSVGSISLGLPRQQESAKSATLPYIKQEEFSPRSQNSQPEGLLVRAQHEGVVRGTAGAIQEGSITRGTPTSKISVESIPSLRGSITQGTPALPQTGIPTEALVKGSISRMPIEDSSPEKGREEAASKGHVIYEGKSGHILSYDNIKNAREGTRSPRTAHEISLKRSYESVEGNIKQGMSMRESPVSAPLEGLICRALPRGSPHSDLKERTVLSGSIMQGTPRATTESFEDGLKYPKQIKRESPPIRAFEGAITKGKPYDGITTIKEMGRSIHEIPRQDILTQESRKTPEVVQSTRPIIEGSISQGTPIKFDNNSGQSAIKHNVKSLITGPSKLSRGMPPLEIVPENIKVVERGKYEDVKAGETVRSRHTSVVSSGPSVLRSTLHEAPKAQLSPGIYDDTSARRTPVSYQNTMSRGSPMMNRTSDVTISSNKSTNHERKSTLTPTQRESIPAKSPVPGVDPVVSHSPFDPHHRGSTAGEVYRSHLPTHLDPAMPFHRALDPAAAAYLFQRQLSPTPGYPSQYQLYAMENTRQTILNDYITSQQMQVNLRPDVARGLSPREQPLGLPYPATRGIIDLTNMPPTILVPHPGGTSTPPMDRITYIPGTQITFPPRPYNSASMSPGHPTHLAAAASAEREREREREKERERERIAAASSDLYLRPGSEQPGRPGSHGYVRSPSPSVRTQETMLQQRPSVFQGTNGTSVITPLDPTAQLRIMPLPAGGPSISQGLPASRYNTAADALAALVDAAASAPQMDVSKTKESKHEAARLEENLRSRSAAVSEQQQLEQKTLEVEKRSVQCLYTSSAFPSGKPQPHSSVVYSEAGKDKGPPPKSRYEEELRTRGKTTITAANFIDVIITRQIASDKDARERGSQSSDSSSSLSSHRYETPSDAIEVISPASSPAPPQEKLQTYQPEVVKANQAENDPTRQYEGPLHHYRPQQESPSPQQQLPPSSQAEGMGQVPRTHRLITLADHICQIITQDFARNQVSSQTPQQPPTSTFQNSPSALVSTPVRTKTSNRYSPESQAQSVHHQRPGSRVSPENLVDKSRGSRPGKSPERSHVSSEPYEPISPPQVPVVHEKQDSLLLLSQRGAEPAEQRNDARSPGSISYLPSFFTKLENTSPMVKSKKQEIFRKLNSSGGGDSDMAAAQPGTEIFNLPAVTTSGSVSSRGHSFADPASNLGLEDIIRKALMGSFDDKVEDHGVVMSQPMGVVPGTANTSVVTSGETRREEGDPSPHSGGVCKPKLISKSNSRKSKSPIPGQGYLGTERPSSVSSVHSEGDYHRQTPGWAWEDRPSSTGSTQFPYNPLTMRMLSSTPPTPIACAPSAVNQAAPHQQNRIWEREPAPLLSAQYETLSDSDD

The target of test [2] is T1, PPARα-HA (Peroxisome Proliferator Activated Receptor alpha, HA-tagged). The experiment in a line: co-IP; anti-HA antibody and Protein G Sepharose on 500 µg cleared extract of HEK293T cells transfected with PPARα-HA, with empty vector or Vps15-Flag; 1% NP-40 lysis buffer, +4 °C, four washes; endogenous Hdac3 immunoblotted. (In general: Immunoblotting shows a protein as a band on a membrane.)

In test [3] the target is GFP-tagged gamma-aminobutyric acid receptor-associated protein (GABARAP) (UniProt O95166). As to the kind of experiment: co-IP; GFP-Trap agarose on lysates of HEK293T cells transfected with GFP, GFP-LC3B or GFP-GABARAP; lysis in 10 mM Tris pH 7.5, 150 mM NaCl, 0.5 mM EDTA, 0.5% NP-40, diluted to 0.1% NP-40; 1 h at +4 °C, six washes; eluates immunoblotted; cells with or without PIK-III (2.5 μM, 6 h) or co-expressed ….

No constants are given. Whether binding was seen depends on the method and setting. In cells and extracts the contact can be indirect. Some binding calls cover weakened binding; strength is not graded here. For some of these results: Tags and fused reporters may be left off the sequences shown.

For “Histone Deacetylase 3 (Hdac3), endogenous in HEK293T cells (from UniProt O15379 1-428)”, the binding result in test [1], in test [2] and in test [3] was “binds” throughout.

Take “Nuclear receptor co-repressor 1 (NCoR1), endogenous in HEK293T cells (from UniProt O75376 1-2440)”: the binding entry in test [3] is recorded as “binds”.

These data come from article PMC6451001.
